In article PMC8882908, “Tricyclic Antidepressant Structure-Related Alterations in Calcium-Dependent Inhibition and Open-Channel Block of NMDA Receptors” (Frontiers in Pharmacology, 2022):
“And” between values parts separate entries of the source, which are not always exact repeats. Equal entries are not always repeated. Where two headings read alike, the source gives them in different places.

Experiments:
[1] = test system: N-methyl-D-aspartate receptors (NMDARs)
[2] = target: N-methyl-D-aspartate receptors (NMDARs); settings: read-out: model-predicted IC50; [Ca2+] = 2.5 mM, Vm = −70 mV

CN(C)CCCN1c2ccccc2CCc2ccc(Cl)cc21 [CLO, clomipramine] was tested, and the “open-channel block potency relative to ATL” value ([1]; based on IC50 (0 mV)) was “about 5 folds”, the “e-fold change Vm (Vm shift giving an e-fold change of IC50)” value ([1]; fit with Eq. 6) was 50 ± 5.5 mV and the “e-fold change [Ca2+] ([Ca2+] shift giving an e-fold change of IC50)” value ([1]; fit with Eq. 6, Vm = −70 mV) was 5500 ± 1800 µM and 5500 µM. The IC50 ([1]; read-out: IC50(0 mV), value of IC50 at Vm = 0 mV from fit with Eq. 6 (Woodhull)) was 90 µM and 91 µM, the IC50 ([1]; read-out: IC50 of the inhibition of NMDAR currents, Vm = −30 mV, [Ca2+] = 0) was 47.3 ± 5.6 µM and the IC50 ([1]; read-out: IC50 of the inhibition of NMDAR currents, Vm = −30 mV, [Ca2+] = 1 mM) was 44.2 ± 7.1 µM. The IC50 ([1]; read-out: IC50 of the inhibition of NMDAR currents, Vm = −70 mV, [Ca2+] = 0) was 23.8 ± 4.4 µM, the IC50 ([1]; read-out: IC50 of the inhibition of NMDAR currents, Vm = −70 mV, [Ca2+] = 1 mM) was 20 µM and 20.6 µM and the IC50 ([1]; read-out: IC50 of the inhibition of NMDAR currents, Vm = −70 mV, [Ca2+] = 4 mM) was 7.1 ± 1.4 µM. For the same compound, the IC50 ([1]; read-out: IC50 of the inhibition of NMDAR currents, Vm = −100 mV, [Ca2+] = 0) was 9.88 ± 1.22 µM, the IC50 ([1]; read-out: IC50 of the inhibition of NMDAR currents, Vm = −100 mV, [Ca2+] = 1 mM) was 11.8 ± 2.4 µM and the IC50 [2] was 14 µM.
